Laboratory results: the supplement of paper PMC10849652
Some of the results follow.

Chains of the proteins cited; added tags and fusions are not shown. Lines headed by an entry give the natural chain unless they say otherwise; changes in a name come on top.
UniProt P62995: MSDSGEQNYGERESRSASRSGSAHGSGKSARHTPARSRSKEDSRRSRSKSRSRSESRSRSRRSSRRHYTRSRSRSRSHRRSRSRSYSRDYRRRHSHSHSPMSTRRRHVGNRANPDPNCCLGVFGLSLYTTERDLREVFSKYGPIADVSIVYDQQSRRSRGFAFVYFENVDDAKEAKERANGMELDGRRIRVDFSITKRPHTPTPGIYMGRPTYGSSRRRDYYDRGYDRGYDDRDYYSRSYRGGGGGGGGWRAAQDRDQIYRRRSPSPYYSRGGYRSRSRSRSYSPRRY
UniProt Q9BRZ2: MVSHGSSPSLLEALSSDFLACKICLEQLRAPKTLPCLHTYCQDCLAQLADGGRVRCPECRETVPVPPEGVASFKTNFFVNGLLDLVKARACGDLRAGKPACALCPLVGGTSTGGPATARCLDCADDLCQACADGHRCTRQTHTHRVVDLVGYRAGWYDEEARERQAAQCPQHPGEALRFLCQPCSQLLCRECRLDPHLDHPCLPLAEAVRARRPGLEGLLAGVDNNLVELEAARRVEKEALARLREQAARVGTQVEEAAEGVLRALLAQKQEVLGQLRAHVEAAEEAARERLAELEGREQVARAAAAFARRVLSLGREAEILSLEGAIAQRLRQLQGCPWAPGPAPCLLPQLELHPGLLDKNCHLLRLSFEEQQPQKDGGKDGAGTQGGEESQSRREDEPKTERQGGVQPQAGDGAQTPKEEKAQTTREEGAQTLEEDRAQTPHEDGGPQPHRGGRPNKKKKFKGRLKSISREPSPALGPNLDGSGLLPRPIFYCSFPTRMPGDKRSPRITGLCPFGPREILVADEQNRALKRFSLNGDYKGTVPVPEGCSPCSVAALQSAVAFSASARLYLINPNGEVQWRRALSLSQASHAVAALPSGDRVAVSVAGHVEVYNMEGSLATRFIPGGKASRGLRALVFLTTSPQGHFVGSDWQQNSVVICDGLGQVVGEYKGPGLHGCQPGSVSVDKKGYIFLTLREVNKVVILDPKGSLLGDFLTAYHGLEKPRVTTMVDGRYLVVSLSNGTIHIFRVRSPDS
UniProt O43715: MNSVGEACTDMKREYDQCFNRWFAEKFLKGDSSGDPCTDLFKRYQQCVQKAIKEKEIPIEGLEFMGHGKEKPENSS
UniProt Q15785: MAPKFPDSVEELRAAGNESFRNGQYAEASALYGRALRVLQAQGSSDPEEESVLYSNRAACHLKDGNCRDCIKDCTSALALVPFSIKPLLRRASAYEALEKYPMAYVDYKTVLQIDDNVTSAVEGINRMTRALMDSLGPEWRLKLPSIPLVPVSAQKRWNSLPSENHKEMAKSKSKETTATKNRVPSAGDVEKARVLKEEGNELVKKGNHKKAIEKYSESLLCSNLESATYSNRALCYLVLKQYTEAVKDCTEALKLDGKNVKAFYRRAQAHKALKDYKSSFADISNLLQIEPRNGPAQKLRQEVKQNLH
UniProt O43399: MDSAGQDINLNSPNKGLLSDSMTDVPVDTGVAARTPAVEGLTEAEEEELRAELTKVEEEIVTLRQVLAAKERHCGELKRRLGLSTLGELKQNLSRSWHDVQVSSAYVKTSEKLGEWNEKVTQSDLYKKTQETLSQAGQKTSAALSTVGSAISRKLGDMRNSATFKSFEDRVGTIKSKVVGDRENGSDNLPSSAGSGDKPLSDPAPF
UniProt Q9UHF7: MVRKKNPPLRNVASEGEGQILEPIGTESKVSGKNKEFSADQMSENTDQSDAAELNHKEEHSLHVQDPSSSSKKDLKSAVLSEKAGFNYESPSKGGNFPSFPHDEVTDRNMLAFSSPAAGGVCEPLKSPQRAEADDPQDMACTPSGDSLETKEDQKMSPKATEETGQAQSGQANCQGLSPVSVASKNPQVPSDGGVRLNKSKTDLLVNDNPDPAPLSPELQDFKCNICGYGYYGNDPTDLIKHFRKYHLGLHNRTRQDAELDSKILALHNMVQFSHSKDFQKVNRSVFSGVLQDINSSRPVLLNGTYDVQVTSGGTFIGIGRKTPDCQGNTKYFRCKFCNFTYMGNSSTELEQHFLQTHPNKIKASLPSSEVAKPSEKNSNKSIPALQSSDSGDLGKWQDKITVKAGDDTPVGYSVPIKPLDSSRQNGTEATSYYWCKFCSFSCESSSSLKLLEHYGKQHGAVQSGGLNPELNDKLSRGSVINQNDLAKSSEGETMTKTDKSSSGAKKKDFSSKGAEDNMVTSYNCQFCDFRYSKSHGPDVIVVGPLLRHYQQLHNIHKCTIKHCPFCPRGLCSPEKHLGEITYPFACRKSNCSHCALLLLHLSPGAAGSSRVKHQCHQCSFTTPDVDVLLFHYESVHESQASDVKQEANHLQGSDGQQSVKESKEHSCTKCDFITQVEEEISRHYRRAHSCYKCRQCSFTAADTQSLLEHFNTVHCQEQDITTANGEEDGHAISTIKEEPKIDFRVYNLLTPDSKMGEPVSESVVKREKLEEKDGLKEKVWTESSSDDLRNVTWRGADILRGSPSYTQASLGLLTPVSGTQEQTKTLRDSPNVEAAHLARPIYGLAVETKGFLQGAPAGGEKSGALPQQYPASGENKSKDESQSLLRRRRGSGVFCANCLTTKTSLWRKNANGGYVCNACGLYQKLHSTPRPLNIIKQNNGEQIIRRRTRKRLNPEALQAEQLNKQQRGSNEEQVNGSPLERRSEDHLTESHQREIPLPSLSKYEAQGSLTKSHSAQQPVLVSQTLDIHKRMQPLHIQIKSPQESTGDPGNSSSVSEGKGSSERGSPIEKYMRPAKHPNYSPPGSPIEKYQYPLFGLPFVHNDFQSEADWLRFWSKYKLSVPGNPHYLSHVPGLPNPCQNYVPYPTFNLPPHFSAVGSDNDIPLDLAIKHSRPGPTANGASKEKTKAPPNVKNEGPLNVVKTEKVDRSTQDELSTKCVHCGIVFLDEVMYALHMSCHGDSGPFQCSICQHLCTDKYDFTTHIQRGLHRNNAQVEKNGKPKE
UniProt O60784, whole entry, looked up: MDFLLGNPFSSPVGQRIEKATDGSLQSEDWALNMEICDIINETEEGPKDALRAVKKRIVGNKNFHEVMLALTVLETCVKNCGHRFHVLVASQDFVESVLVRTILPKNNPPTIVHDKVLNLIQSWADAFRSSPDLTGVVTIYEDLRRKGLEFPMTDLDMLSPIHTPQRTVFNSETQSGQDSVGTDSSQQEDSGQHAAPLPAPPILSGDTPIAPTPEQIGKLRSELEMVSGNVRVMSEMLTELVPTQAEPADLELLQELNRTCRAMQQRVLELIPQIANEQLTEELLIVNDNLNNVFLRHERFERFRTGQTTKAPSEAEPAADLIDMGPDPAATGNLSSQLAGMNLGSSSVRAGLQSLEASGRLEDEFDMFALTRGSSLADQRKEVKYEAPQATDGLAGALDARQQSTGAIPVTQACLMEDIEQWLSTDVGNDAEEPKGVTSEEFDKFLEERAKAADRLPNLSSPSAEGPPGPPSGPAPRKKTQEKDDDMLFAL
UniProt Q13625: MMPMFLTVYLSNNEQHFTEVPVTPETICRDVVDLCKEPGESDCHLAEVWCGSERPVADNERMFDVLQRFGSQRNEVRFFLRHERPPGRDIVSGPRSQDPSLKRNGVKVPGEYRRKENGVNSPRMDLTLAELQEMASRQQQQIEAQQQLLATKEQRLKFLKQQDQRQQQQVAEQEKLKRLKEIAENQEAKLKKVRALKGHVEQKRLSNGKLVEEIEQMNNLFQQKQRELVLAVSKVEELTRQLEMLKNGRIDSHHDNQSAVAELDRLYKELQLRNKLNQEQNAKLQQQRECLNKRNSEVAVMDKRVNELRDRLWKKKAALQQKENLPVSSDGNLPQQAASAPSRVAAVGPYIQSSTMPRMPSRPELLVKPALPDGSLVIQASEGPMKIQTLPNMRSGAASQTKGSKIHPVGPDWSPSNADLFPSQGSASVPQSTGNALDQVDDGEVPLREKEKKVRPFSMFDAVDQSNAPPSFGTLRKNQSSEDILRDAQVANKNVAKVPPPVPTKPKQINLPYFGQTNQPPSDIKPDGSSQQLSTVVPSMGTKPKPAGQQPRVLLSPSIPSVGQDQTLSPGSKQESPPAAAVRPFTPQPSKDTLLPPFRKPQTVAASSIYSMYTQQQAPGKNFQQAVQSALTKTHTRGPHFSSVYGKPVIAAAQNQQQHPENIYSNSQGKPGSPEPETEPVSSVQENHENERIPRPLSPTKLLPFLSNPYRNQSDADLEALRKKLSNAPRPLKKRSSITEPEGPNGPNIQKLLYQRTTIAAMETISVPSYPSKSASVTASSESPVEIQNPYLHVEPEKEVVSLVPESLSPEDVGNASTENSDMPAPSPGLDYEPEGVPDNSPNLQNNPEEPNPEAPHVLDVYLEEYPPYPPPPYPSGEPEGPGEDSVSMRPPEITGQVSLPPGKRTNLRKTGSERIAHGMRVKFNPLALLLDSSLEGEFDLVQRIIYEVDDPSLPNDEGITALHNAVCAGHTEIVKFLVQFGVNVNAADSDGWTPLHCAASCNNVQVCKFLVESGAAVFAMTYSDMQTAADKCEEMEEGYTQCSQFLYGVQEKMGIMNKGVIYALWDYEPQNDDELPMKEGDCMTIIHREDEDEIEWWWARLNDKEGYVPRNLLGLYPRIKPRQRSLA
UniProt Q9H3S4: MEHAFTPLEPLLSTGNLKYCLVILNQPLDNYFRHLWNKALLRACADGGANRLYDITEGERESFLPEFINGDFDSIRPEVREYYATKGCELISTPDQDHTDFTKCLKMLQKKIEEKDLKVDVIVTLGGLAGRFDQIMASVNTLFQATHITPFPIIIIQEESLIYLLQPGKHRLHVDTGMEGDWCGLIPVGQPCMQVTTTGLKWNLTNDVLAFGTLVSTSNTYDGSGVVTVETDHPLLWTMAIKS
UniProt O95900: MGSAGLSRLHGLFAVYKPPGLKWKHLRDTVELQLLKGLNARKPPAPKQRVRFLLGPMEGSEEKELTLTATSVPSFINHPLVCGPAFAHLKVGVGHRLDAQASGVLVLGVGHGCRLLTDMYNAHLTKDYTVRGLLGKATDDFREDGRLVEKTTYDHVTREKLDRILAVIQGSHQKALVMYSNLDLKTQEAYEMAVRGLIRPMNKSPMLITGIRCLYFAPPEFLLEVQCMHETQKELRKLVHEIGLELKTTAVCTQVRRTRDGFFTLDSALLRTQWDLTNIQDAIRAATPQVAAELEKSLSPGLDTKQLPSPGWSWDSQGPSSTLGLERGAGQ
UniProt Q629K1: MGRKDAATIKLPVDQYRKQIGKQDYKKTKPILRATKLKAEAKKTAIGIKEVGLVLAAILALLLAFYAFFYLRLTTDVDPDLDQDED
UniProt P14373: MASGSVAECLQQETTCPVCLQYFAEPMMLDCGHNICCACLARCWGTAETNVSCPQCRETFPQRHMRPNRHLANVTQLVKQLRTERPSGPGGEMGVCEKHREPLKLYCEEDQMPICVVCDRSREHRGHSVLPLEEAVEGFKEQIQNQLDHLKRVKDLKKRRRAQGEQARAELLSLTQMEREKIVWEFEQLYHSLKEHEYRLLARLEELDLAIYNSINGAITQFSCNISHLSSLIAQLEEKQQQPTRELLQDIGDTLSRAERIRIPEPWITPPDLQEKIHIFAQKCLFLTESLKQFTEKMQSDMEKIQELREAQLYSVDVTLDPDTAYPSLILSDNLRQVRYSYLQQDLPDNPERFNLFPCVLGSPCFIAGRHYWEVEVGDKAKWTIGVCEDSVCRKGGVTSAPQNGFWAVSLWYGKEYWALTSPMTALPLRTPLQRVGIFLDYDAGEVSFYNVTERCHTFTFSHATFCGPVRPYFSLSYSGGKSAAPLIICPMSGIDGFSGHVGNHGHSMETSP
UniProt Q13114: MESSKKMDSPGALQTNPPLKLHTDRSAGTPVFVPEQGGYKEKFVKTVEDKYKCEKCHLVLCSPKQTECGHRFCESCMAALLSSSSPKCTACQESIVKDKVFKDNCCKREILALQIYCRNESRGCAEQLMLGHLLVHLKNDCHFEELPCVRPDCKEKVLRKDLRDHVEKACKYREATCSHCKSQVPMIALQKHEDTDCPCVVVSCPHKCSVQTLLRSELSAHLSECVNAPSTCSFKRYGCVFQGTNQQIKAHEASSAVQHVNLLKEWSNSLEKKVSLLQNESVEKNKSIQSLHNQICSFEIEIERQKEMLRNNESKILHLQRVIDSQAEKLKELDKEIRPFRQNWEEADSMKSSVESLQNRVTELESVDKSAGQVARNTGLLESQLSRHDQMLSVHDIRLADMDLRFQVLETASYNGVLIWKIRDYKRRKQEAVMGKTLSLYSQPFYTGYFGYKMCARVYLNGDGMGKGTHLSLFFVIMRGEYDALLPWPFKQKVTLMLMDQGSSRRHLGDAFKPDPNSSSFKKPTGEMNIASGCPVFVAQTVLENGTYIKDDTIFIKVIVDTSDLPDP
UniProt P55327: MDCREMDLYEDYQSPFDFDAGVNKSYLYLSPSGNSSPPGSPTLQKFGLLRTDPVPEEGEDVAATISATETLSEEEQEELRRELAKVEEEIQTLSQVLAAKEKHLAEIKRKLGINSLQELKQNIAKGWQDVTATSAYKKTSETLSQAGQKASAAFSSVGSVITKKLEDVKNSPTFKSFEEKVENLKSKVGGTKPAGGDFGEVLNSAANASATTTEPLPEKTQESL

Tests used:
Assay in all cases: log2 fold change, soluble protein after heating vs DMSO (PISA); higher = thermal stabilisation; K562 cells, 10 uM, 30 min; active = over 0.2 and 3.5 SD of the protein, either way, in both replicates (recomputed)
[1] = compound: CC[C@@H]1C(=O)N(C)c2cnc(Nc3ccc(C(=O)NC4CCN(C)CC4)cc3OC)nc2N1C1CCCC1
How it was run: (§1)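 For each measurement, 10 μM compound was applied for 30 min to K562 cells at 2×10^6 cells/mL. Aliquots were heated for 3 min across 48°C-58°C, pooled, and extracted in PBS with 0.5% NP-40 at 4°C; the supernatant after 21,000xg for 90 min was soluble protein. This was quantified by TMTpro 16plex LC-MS/MS with channel sums equalised, and thermal stability was reported relative to control samples from duplicates, on a log2 fold-change scale.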

volasertib = compound: CC[C@@H]1C(=O)N(C)c2cnc(Nc3ccc(C(=O)N[C@H]4CC[C@H](N5CCN(CC6CC6)CC5)CC4)cc3OC)nc2N1C(C)C [volasertib]
How it was run: as §1

[2] = compound: CC[C@H](C)N1C=C(C2=C(C=C(C=C21)C3=CN=C(C=C3)N4CCNCC4)C(=O)NCC5=C(C=C(NC5=O)C)C)C
How it was run: as §1

epoxomicin = compound: CC[C@H](C)[C@@H](C(=O)N[C@@H]([C@@H](C)O)C(=O)N[C@@H](CC(C)C)C(=O)[C@]1(CO1)C)NC(=O)[C@H]([C@@H](C)CC)N(C)C(=O)C [epoxomicin]
How it was run: as §1

[3] = compound: CCn1c(C(=O)N(C2CC2)C2CC2)cc2c3c(ncn3C)c(Nc3cc(C)n(C)n3)nc21
How it was run: as §1

[4] = compound: CCn1cc(-c2ccnc3[nH]c(-c4cccc(CN(C)C)c4)cc23)c(-c2ccc(NC(=O)N(C)C)cc2)n1
How it was run: as §1

[5] = compound: CN(C)CC(=O)Nc1ccc2[nH]c(=O)c3ccccc3c2c1
How it was run: as §1

rosiglitazone = compound: CN(CCOC1=CC=C(C=C1)C[C@H]2C(=O)NC(=O)S2)C3=CC=CC=N3 (racemic) [rosiglitazone]
How it was run: as §1

[6] = compound: CN1C2=C(C3=C1C(=O)N(N=C3)CC4=CC(=CC=C4)N)SC(=C2)S(=O)C
How it was run: as §1

[7] = compound: CN1CCC(CNc2ccc3ncc(-c4cccc(OC(F)(F)F)c4)n3n2)CC1
How it was run: as §1

| Target | log2 fold change [1] | log2 fold change (volasertib) | log2 fold change [2] | log2 fold change (epoxomicin) | log2 fold change [3] | log2 fold change [4] | log2 fold change [5] | log2 fold change (rosiglitazone) | log2 fold change [6] | log2 fold change [7] |
| --- | --- | --- | --- | --- | --- | --- | --- | --- | --- | --- |
| TRA2B (UniProt P62995) | inactive: 0.157 | inactive: 0.131 | inactive: -0.031 | inactive: -0.139 | inactive: 0.032 | inactive: 0.42 | inactive: -0.024 | inactive: -0.243 | inactive: 0.38 | inactive: 0.391 |
| TRIM56 (UniProt Q9BRZ2) | inactive: 0.2 | inactive: 0.146 | inactive: -0.046 | inactive: -0.113 | inactive: 0.034 | inactive: 0.07 |  | inactive: 0.021 | inactive: 0.243 | inactive: 0.054 |
| TRIAP1 (UniProt O43715) | inactive: 0.018 | inactive: -0.076 | inactive: -0.05 | inactive: 0.198 | inactive: -0.039 | inactive: 0.099 | inactive: -0.016 | inactive: -0.039 | inactive: -0.08 | inactive: 0.116 |
| TOMM34 (UniProt Q15785) | inactive: -0.038 | inactive: -0.214 | inactive: 0.056 | inactive: -0.009 | inactive: -0.055 | inactive: -0.017 | inactive: 0.078 | inactive: 0.034 | inactive: 0.085 | inactive: -0.212 |
| TRIM24 (UniProt O15164) | inactive: -0.199 | inactive: -0.234 | inactive: 0.068 | inactive: 0.321 | inactive: -0.032 | inactive: 0.026 | inactive: 0.2 | inactive: 0.065 | inactive: 0.099 | inactive: -0.089 |
| TRAPPC11 (UniProt Q7Z392) | inactive: -0.045 | active: -0.275 | inactive: 0.015 | inactive: 0.016 |  | inactive: -0.032 | inactive: 0.032 |  | inactive: 0.004 | inactive: -0.127 |
| TRIP6 (UniProt Q15654) | inactive: -0.049 | inactive: -0.188 | inactive: 0.018 | inactive: 0.028 | inactive: -0.024 | inactive: -0.015 | inactive: -0.05 | inactive: 0.027 | inactive: -0.041 | inactive: -0.027 |
| TSEN34 (UniProt Q9BSV6) | inactive: -0.005 | inactive: -0.162 | inactive: 0.094 | inactive: 0.17 | inactive: -0.055 |  | inactive: 0.204 | inactive: 0.01 | inactive: -0.144 |  |
| TNNC2 (UniProt P02585) | inactive: 0.042 | inactive: 0.07 | inactive: -0.031 | inactive: -0.037 |  | inactive: 0.04 | inactive: -0.006 |  | inactive: -0.053 | inactive: -0.015 |
| TPD52L2 isoform 7 (UniProt O43399) | inactive: 0.008 | inactive: 0.078 | inactive: -0.016 | inactive: -0.003 | inactive: 0.03 | inactive: 0.046 | inactive: -0.019 | inactive: 0.016 | inactive: -0.046 | inactive: -0.031 |
| TRAPPC13 isoform 5 (UniProt A5PLN9) | inactive: -0.055 | inactive: -0.34 | inactive: 0.044 | inactive: -0.014 |  | inactive: -0.068 | inactive: 0.078 |  | inactive: 0.042 | inactive: -0.187 |
| TPMT (UniProt P51580) | inactive: -0.022 | inactive: 0 | inactive: 0.007 | inactive: 0.025 | inactive: 0.048 | inactive: -0.019 | inactive: -0.005 | inactive: 0.035 | inactive: -0.072 | inactive: -0.042 |
| TRAPPC2L (UniProt Q9UL33) | inactive: -0.109 | inactive: -0.065 | inactive: 0.008 | inactive: 0.06 |  | inactive: -0.042 | inactive: 0.128 |  | inactive: 0.007 | inactive: 0.001 |
| TRPS1 isoform 2 (UniProt Q9UHF7) |  |  |  |  | inactive: -0.105 |  |  |  |  |  |
| TOM1 (UniProt O60784) |  |  |  | inactive: 0.094 |  | inactive: -0.072 |  |  |  | active: -0.664 |
| TROAP (UniProt Q12815) |  |  |  | inactive: 0.196 |  | inactive: -0.004 |  | inactive: 0.064 |  | inactive: -0.086 |
| TRIM21 (UniProt P19474) |  | inactive: 0.06 | inactive: 0.14 |  | inactive: 0.04 |  |  | inactive: 0.058 | inactive: -0.022 |  |

| Target | log2 fold change [1] | log2 fold change (volasertib) | log2 fold change [2] | log2 fold change (epoxomicin) | log2 fold change [3] | log2 fold change [4] | log2 fold change [5] | log2 fold change (rosiglitazone) | log2 fold change [6] | log2 fold change [7] |
| --- | --- | --- | --- | --- | --- | --- | --- | --- | --- | --- |
| TP53BP2 isoform 3 (UniProt Q13625) |  | inactive: -0.126 | inactive: 0.02 | inactive: 0.04 | inactive: -0.061 | inactive: 0.119 | inactive: -0.007 | inactive: -0.071 | inactive: 0.038 | inactive: -0.123 |
| TNK2 isoform 3 (UniProt Q07912) |  |  |  |  | inactive: 0.089 |  |  | inactive: -0.125 | inactive: -0.037 |  |
| TPK1 (UniProt Q9H3S4) |  | inactive: 0.014 |  | inactive: 0.049 | inactive: 0.236 | inactive: -0.073 | inactive: 0.053 | inactive: 0.04 | inactive: -0.123 | inactive: -0.019 |
| TRUB2 (UniProt O95900) |  | inactive: -0.032 |  | inactive: -0.276 | inactive: 0.086 | inactive: 0.244 |  |  | inactive: 0.01 | inactive: 0.069 |
| TRADD (UniProt Q15628) |  |  | inactive: 0.309 | inactive: 0.078 | inactive: -0.1 |  | inactive: 0.136 |  | inactive: 0.084 |  |
| TRIQK (UniProt Q629K1) |  |  |  | inactive: -0.02 |  |  |  |  | inactive: -0.04 |  |
| TRIM27 (UniProt P14373) |  |  |  |  |  | inactive: -0.16 |  |  |  | inactive: 0.124 |
| TPCN1 isoform 3 (UniProt Q9ULQ1) |  | inactive: -0.045 | inactive: -0.076 | inactive: 0.163 | inactive: 0.059 | inactive: 0.23 | inactive: -0.114 | inactive: -0.003 | inactive: 0.039 | inactive: -0.19 |
| TRPC4AP (UniProt Q8TEL6) |  | inactive: -0.243 | inactive: 0.014 | inactive: 0.234 | inactive: -0.017 | inactive: 0.041 | inactive: -0.08 |  | inactive: -0.062 | inactive: -0.097 |
| TRIM5 (UniProt Q9C035) |  |  |  | inactive: 0 |  |  | inactive: -0.005 |  | inactive: 0.25 |  |
| TRIM38 (UniProt O00635) |  | inactive: 0.114 | inactive: -0.01 | inactive: -0.008 | inactive: -0.142 | inactive: -0.055 | inactive: -0.045 | inactive: -0.019 | inactive: 0.006 | inactive: -0.193 |
| TRIM65 (UniProt Q6PJ69) | inactive: 0.098 |  |  |  |  |  | inactive: -0.284 |  | inactive: 0.043 |  |
| TRAF3 (UniProt Q13114) |  |  |  |  |  |  | inactive: -0.049 |  |  |  |
| TPD52L2 isoform 3 (UniProt O43399) |  |  | inactive: 0.02 | inactive: 0.001 |  | inactive: -0.076 | inactive: -0.029 |  |  | inactive: -0.042 |
| TNRC6B (UniProt Q9UPQ9) |  | inactive: 0.016 |  | inactive: 0.012 | inactive: -0.052 | inactive: 0.005 |  | inactive: -0.157 | inactive: 0.201 | inactive: 0.097 |
| TRIM33 isoform 2 (UniProt Q9UPN9) |  |  | inactive: 0.312 | inactive: 0.227 |  |  |  |  |  |  |
| TPD52 isoform 3 (UniProt P55327) |  |  |  |  |  |  |  | inactive: -0.447 | inactive: 0.035 |  |

Another view of part of the listing above.
Target | log2 fold change [1] | log2 fold change (volasertib) | log2 fold change [2] | log2 fold change (epoxomicin) | log2 fold change [3] | log2 fold change [4] | log2 fold change [5] | log2 fold change (rosiglitazone) | log2 fold change [6] | log2 fold change [7]
TRIM5 (UniProt Q9C035) |  |  |  | inactive: 0 |  |  | inactive: -0.005 |  | inactive: 0.25 | 
TRIM38 (UniProt O00635) |  | inactive: 0.114 | inactive: -0.01 | inactive: -0.008 | inactive: -0.142 | inactive: -0.055 | inactive: -0.045 | inactive: -0.019 | inactive: 0.006 | inactive: -0.193
